Data: paper PMC6048764, “Myricetin antagonizes semen-derived enhancer of viral infection (SEVI) formation and influences its infection-enhancing activity” (Retrovirology, 2018)
These are yes or no findings as the source states them, for the method shown.

B1: SEM2_(86–107) (peptide, UniProt Q02383 86-107, looked up)
peptide: DLNALHKATKSKQHLGGSQQLL
notes: source: synthetic peptide (Scilight Biotechnology LLC, Beijing)
B2: SEM1_(86–107) (peptide, UniProt P04279 86-107, looked up)
peptide: DLNALHKTTKSQRHLGGSQQLL
notes: as for B1

Experiments:
SEM2_(86–107) (human) = SEM2_(86–107) (human) (UniProt Q02383); test: thioflavin T fluorescence; amyloid fibril formation; peptide 3 mg/ml agitated at 1400 rpm at 37 °C in the presence of myricetin 200 µg/ml; both purified
SEM1_(86–107) (human) = SEM1_(86–107) (human) (UniProt P04279); test: as above

Binder | binding (SEM2_(86–107) (human)) | binding (SEM1_(86–107) (human))
B1 | no binding (condition: with myricetin 200 µg/ml) | –
B2 | – | no binding (condition: with myricetin 200 µg/ml)
